In article PMC6428284:
No constants are given. Whether binding was seen depends on the method and setting. For some of these results: Binding calls can cover weak binding; strength is not graded here. One block for each molecule: values may come before it.

Key:
Assay in all cases: two-hybrid; strain PJ69-4A (wild-type SMT3); GAL4BD-Yen1 or truncated/mutant derivatives as bait, GAL4AD fusions (pACTII) as prey; ten-fold serial dilutions spotted on SC-His and SC-Ade plates, 3 days at 30°C; library screen and directed tests
[1] = target: T1, Gal4 DNA binding domain-Yen1 (full-length YEN1 in pAS1, plasmid pJ90) (S. cerevisiae) (UniProt P40028)
T1 sequence: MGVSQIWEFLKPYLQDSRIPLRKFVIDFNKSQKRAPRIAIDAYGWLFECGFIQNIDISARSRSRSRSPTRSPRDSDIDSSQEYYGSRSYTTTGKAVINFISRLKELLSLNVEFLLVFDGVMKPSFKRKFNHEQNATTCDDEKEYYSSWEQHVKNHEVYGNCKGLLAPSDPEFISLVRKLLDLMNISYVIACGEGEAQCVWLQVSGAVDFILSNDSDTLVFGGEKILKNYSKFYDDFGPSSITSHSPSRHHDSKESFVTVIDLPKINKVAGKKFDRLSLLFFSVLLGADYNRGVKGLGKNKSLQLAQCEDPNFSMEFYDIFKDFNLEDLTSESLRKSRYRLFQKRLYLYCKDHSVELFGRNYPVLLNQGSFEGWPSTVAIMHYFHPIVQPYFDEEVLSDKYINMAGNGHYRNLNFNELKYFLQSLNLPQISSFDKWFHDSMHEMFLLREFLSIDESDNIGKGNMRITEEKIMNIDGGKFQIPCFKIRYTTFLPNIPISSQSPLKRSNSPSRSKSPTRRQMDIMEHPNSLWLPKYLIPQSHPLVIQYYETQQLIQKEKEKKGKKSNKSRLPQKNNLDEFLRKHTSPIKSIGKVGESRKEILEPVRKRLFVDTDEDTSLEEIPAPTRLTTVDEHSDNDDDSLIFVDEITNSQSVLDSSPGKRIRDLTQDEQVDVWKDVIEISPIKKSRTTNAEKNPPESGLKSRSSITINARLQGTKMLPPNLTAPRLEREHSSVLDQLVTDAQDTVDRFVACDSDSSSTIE

[2] = target: T2, GBD-Yen1 (1–638) (S. cerevisiae) (UniProt P40028)
T2 sequence: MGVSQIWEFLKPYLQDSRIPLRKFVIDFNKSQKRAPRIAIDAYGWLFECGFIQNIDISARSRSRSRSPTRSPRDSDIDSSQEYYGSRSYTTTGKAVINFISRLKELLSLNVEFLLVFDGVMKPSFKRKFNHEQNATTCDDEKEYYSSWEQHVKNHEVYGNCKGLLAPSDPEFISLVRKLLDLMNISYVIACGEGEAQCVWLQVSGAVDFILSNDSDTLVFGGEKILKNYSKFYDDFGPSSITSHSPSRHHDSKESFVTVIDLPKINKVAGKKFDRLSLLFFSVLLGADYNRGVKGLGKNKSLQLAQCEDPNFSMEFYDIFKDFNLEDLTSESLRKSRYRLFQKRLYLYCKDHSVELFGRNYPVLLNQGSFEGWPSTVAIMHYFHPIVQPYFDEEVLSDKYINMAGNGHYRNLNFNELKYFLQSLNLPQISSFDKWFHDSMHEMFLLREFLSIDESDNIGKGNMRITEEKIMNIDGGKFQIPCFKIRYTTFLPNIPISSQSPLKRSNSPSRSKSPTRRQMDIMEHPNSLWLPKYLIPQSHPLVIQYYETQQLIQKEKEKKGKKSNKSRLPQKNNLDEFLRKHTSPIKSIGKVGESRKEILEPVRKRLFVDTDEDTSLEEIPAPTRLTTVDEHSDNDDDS

[3] = target: T3, GBD-Yen1 (1–690) (S. cerevisiae) (UniProt P40028)
T3 sequence: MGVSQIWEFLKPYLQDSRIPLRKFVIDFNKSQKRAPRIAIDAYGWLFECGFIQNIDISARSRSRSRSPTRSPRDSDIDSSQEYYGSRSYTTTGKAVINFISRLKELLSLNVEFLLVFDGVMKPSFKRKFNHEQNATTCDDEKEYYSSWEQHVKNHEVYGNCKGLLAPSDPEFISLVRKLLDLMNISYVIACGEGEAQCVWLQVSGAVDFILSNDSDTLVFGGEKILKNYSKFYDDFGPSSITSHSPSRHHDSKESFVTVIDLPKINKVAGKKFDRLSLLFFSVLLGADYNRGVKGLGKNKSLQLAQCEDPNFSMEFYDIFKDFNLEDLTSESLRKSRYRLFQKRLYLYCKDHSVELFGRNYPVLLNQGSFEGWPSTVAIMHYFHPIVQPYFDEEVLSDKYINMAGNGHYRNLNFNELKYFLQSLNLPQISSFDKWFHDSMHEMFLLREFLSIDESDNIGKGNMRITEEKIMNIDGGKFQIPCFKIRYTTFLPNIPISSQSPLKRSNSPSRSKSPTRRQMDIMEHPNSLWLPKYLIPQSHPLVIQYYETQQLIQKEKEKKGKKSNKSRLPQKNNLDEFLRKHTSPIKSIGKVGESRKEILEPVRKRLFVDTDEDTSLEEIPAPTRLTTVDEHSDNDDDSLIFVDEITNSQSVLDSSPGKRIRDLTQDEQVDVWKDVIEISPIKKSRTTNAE

[4] = target: GBD-Yen1 C-terminus (construct of S2 Fig) (S. cerevisiae)

Molecule: GAL4AD-Uls1 336–599 SIMs triple mutant (ΔIII ΔLDT ΔILV) (from UniProt Q08562) (domain or fragment)
binding [1]: binds weakly
binding [2]: no binding
binding [3]: binds

Molecule: GAL4AD-Uls1 336–599 SIM2 (ΔIII) (from UniProt Q08562) (domain or fragment)
binding [1]: binds

Other lines, results leading:

binding [1]: binds
Molecule: GAL4AD-Uls1 336–599 (ΔIII ΔLDT) (from UniProt Q08562) (domain or fragment)

binding [1]: binds
Molecule: GAL4AD-Uls1 336–599 SIM4 (ΔILV) (from UniProt Q08562) (domain or fragment)

binding [4]: binds
B1: GAL4AD-Uls1 336–599 (domain or fragment, UniProt Q08562 336-599)
chain: GDFADNKILKRPILPSKNMDHTTHNSHDSEQKNSSIIILSDEDESGAGINDIESPLKVSEPNTADALRSSVPEVISLLDLPNIDLNNSVIKEASGSNSIPTSETDAQSSSSSVLQGTIMTEQATQSSQHECNSSLDTLKKNHQKLLKDLNSRESELRNALSCCKTNSEILRRKLSRREKEVSDAEKHWQLLLTSMARGGRTISSTQQILVDEAENQLNKLKEKRQLTKSKLDSINLKMYNYNEQWKSFVHSKNINLQKSLAALE
